Results on 69 compounds are retold here after PubChem BioAssay AID662 (National Center for Advancing Translational Sciences (NCATS), 2007).

The other results are listed elsewhere or left out. These are further read-outs of the screen, such as a control signal, another cell line or another target. No call is given for them. The list favours compounds with an active or inconclusive main result. Potencies come from curve fits of mixed quality, noted in brackets.

A short description of this assay: Cell signaling CRE-BLA (Fsk stim). As to conditions: CHO CRE-bla reporter (cAMP response element driving beta-lactamase), forskolin EC10, beta-lactamase ratio; measured here: 460 nm blue channel. The method in brief: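 Modulation of forskolin signalling: compounds in titration series added with EC10 NKH 477 to CHO cells carrying a CRE-driven beta-lactamase reporter, 3 h, 37C. CCF4 FRET ratio (460/530 nm, ex 405 nm) gives %activity and AC50.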
Consider `CC1(C)OC(=O)N(c2cccnc2)C1(C)O` (centres undefined), for which the AC50 – broadly, the midpoint of the concentration-response curve, whichever way the signal moves – is 0.2 µM [falling, full curve].

Consider `COC(=O)c1c(NC(=O)CSc2nncs2)sc2c1CCCCC2`, for which the AC50 is 12.6 µM [rising, partial curve].

Regarding `CN1/C(=C\C(=O)COC(=O)Cn2nnc(-c3ccccc3)n2)C(C)(C)c2ccccc21`, the concentration at half-maximal activity (AC50) is 3.98 µM [falling, partial curve].

On to `CNc1oc(Cc2ccccc2)nc1S(=O)(=O)c1ccccc1`, for which the half-maximal activity concentration (AC50) is 12.6 µM [falling, single point].

In the case of `COc1ccc(S(=O)(=O)c2c(N)n(Cc3ccco3)c3nc4ccccc4nc23)cc1`, the AC50 is 12.6 µM [rising, single point].

As for `COc1ccc(S(=O)(=O)NCC(c2cccnc2)N2CCN(c3ccc(F)cc3)CC2)cc1C` (centres undefined), the concentration at half-maximal activity (AC50) was 15.8 µM [rising, partial curve, poor fit].

Turning to `Nc1c(C(=O)NC2CCCC2)sc2nc(-c3cccs3)ccc12`, the AC50 was 12.6 µM [rising, single point].

Take `CNc1ncnc2ccc(-c3ccccc3C)cc12`: the AC50 is 10 µM [rising, partial curve].

For the compound `CCn1c(=O)c(C(=O)NCc2ccccn2)c(O)c2ccccc21`, the AC50 was 6.31 µM [rising, partial curve].

With `Cc1ccc(SCc2[nH]nc3c2C2(CCSCC2)C(C#N)=C(N)O3)cc1`, the AC50 is 10 µM [falling, single point].

Turning to `CCn1c(SCC(=O)Nc2cc3oc4ccccc4c3cc2OC)nnc1-c1cccs1`, the AC50 was 1.58 µM [rising, partial curve].

With `CCOc1cc(-c2c(C)c(CC)nc(N)c2C#N)ccc1O`, the AC50 was 12.6 µM [rising, partial curve].

As to `COc1cc2nc(NCC3CCCO3)n3nc(-c4cccnc4)nc3c2cc1OC` (centres undefined), the AC50 was 0.794 µM [rising, partial curve].

Take `COC(=O)c1ccccc1NC(=O)c1ccc(NS(C)(=O)=O)cc1`: the AC50 is 15.8 µM [rising, single point].

As to `O=C(NCc1cccnc1)C1CCN(S(=O)(=O)c2cccnc2)CC1`, the AC50 was 0.0251 µM [falling, full curve].

Turning to `CCNS(=O)(=O)c1ccc(NC(=O)c2ccccc2OCC)cc1`, the AC50 is 15.8 µM [rising, partial curve].

With `Nc1ncc(-c2cc3ccccc3oc2=O)s1`, the AC50 is 1.26 µM [rising, partial curve].

With `COc1ccccc1CCn1c(=O)c(C)nc2cncnc21`, the concentration at half-maximal activity (AC50) is 31.6 µM [rising, single point].

Turning to `O=C(Nc1ccc2c(c1)OCCO2)c1ccncc1`, the AC50 was 0.631 µM [falling, full curve, poor fit].

For the compound `C=CCn1c(NC(=O)c2ccco2)c(S(=O)(=O)c2ccccc2)c2nc3ccccc3nc21`, the half-maximal activity concentration (AC50) was 12.6 µM [rising, partial curve].

Regarding `COCCn1c(SCC(=O)Nc2cc(Cl)ccc2OC)nc2c(c1=O)SC(C)C2` (centres undefined), the AC50 was 12.6 µM [rising, partial curve].

Turning to `C=CCn1c(SCC(=O)N2CCN(C(=O)c3ccco3)CC2)nc2sc(CC)cc2c1=O`, the half-maximal activity concentration (AC50) was 12.6 µM [rising, partial curve].

As for `CCn1c(SCc2nc3ccccc3c(=O)[nH]2)nc2ccccc2c1=O`, the AC50 is 3.98 µM [rising, partial curve].

On to `CS(=O)(=O)N1CCc2cc(C(=O)OCC(=O)c3ccccc3)ccc21`, for which the concentration at half-maximal activity (AC50) is 12.6 µM [falling, single point].

For the compound `COc1ccc(-c2noc(COc3ccccc3OC)n2)cc1OC`, the concentration at half-maximal activity (AC50) is 7.94 µM [rising, partial curve].

As to `COC(=O)C1=C2SC(C)C(=O)N2C(N)=C(C#N)C1c1cc(OC)c(OC)c(OC)c1` (centres undefined), the AC50 is 2.51 µM [falling, full curve, poor fit].

`CCCn1c(C)cc(=O)c2cc(NC(=O)c3cnccn3)ccc21`: the AC50 was 25.1 µM [rising, single point].

Consider `OC(COCC1COc2ccccc2O1)CN1CCN(c2ccccn2)CC1` (centres undefined), for which the half-maximal activity concentration (AC50) was 0.126 µM [falling, single point].

As to `COc1ccc(-n2c(N)c(C(=O)NCc3ccco3)c3nc4ccccc4nc32)c(OC)c1`, the AC50 was 12.6 µM [rising, partial curve].

`Cc1sc(NC(=O)CSc2nnc(COc3ccc(Cl)cc3)n2C)c(C#N)c1C`: the half-maximal activity concentration (AC50) is 25.1 µM [falling, single point].

In the case of `COc1cc(-c2nnc(-c3cccnc3)o2)cc(OC)c1OC`, the AC50 was 10 µM [rising, partial curve].

On to `Cc1cccc(-c2cc3nc4c(c(N5CCCC(O)C5)n3n2)CCC4)c1` (centres undefined), for which the half-maximal activity concentration (AC50) is 10 µM [rising, partial curve].

With `COc1cccc(C(=O)N(Cc2nc(-c3cccc(C)c3)no2)C(C)C)c1OC`, the AC50 was 5.01 µM [falling, partial curve].

With `Cc1noc(C)c1COC(=O)c1ccccc1Oc1ccccc1`, the AC50 was 10 µM [rising, partial curve].

For the compound `CC(O)CNc1nc2c(c(=O)n(C)c(=O)n2C)n1C/C=C/c1ccccc1` (centres undefined), the concentration at half-maximal activity (AC50) was 12.6 µM [rising, partial curve].

Take `CCN(CC)CCCNc1nc2ccccc2[nH]1`: the half-maximal activity concentration (AC50) was 12.6 µM [rising, single point].

Take `C=C(C)[C@H]1CC=C(C)C(=O)C1`: the half-maximal activity concentration (AC50) was 0.794 µM [falling, full curve, poor fit].

Regarding `Cc1ccc2cc(C)c(N3CCN(c4ccccn4)CC3)nc2c1`, the half-maximal activity concentration (AC50) was 0.501 µM [rising, full curve].

Take `Cc1nn(-c2ccccc2)c2[nH]c(C(F)(F)F)cc(=O)c12`: the AC50 is 25.1 µM [rising, single point].

As to `O=C(CN1CCOCC1)NCc1ccccc1`, the half-maximal activity concentration (AC50) is 0.794 µM [falling, full curve, poor fit].

Turning to `COc1ccc2nc(NC(=O)Cc3ccc(OC)c(S(=O)(=O)N4CCOCC4)c3)sc2c1`, the AC50 is 10 µM [rising, partial curve].

With `N#Cc1cccc(-c2cc(NCc3ccccc3)ncn2)c1`, the concentration at half-maximal activity (AC50) was 6.31 µM [rising, partial curve].

Turning to `Cn1c2ccccc2c2ncn(Cc3ccco3)c(=O)c21`, the concentration at half-maximal activity (AC50) is 10 µM [rising, partial curve].

Turning to `Cc1ccc(-n2nnnc2SCc2nnc(-c3ccccc3Br)o2)c(C)c1`, the concentration at half-maximal activity (AC50) was 0.1 µM [falling, full curve].

Turning to `COc1cccc(-n2nnc3c(=O)n(Cc4cccc(C)c4)cnc32)c1`, the AC50 is 12.6 µM [rising, partial curve].

As for `O=C(COC(=O)C1=COCCO1)Nc1ncc(C(F)(F)F)cc1Cl`, the concentration at half-maximal activity (AC50) is 0.0794 µM [falling, partial curve, poor fit].

Regarding `COc1ccc(OC)c(C2SCCN2S(=O)(=O)c2cccc(C(F)(F)F)c2)c1` (centres undefined), the concentration at half-maximal activity (AC50) was 0.794 µM [falling, partial curve, poor fit].

Turning to `COc1cc(-c2nnc3sc(Cc4ccc(Cl)cc4)nn23)cc(OC)c1OC`, the AC50 is 2 µM [rising, full curve].

Regarding `O=C(Oc1ccnc2cc(Cl)ccc12)N1CCOCC1`, the AC50 was 0.00631 µM [falling, full curve].

`Cc1ccc(Cn2nnc3c(=O)n(CC(=O)N4CCCc5ccccc54)cnc32)cc1`: the concentration at half-maximal activity (AC50) was 0.631 µM [falling, full curve].

As for `COc1nnc(-c2ccc(N3CCOCC3)c(NC(C)=O)c2)c2ccccc12`, the AC50 is 0.398 µM [rising, full curve].

Regarding `c1ccc2c(c1)[nH]c1nc(SCCN3CCOCC3)nnc12`, the AC50 was 12.6 µM [rising, single point].

On to `CN(C)CCCOC(=O)Cc1ccc(Cl)cc1`, for which the concentration at half-maximal activity (AC50) was 0.794 µM [falling, full curve].

`Cn1c(C(=O)NCCN2CCCCCC2)cc2c(=O)n(C)c3ccccc3c21`: the AC50 was 6.31 µM [rising, partial curve].

In the case of `NC(=Nc1ccccc1)NC(=O)c1nc(Cl)c(N)nc1N`, the concentration at half-maximal activity (AC50) is 25.1 µM [rising, partial curve].

As for `CCCCn1c(CN2CCN(c3cccc(Cl)c3)CC2)nc2c1c(=O)n(C)c(=O)n2C`, the half-maximal activity concentration (AC50) was 5.01 µM [falling, partial curve].

On to `Cc1cccc(S(=O)(=O)Nc2nc3ccccc3nc2NCc2ccco2)c1`, for which the concentration at half-maximal activity (AC50) is 7.94 µM [rising, partial curve].

In the case of `CSc1ncccc1C(=O)OCC(=O)c1cc2ccccc2o1`, the concentration at half-maximal activity (AC50) was 5.01 µM [falling, single point].

Regarding `CCN1C(=O)/C(=C/N(C)C)c2ccccc21`, the AC50 is 3.16 µM [falling, full curve, poor fit].

`COc1ccc(Cc2nnc3n2N=C(c2cc4ccccc4o2)CS3)cc1OC`: the half-maximal activity concentration (AC50) is 3.98 µM [rising, partial curve].

Regarding `O=C(O)CC(CC(=O)O)C(=O)O`, the AC50 is 0.501 µM [rising, single point].

With `O=C(COc1ccc2ccccc2c1Br)N1CCOCC1`, the AC50 is 15.8 µM [falling, partial curve].

Turning to `COCCN(CCOC)c1cc(C)c(C#N)c2nc3ccccc3n12`, the AC50 was 12.6 µM [rising, partial curve].

On to `N#Cc1c(N2CCCC2)nc(N)c2c(N)nc(N3CCCC3)cc12`, for which the concentration at half-maximal activity (AC50) is 3.16 µM [rising, single point].

For `O=C(O)c1cc(S(=O)(=O)N2CCCCCC2)c(Cl)cc1Cl`, the AC50 was 0.631 µM [falling, full curve].

For the compound `CCN(CC)c1ccc(-c2nc3cnccc3n2C)cc1`, the AC50 is 1.26 µM [rising, partial curve].

For `O=C(NCc1ccccn1)c1ccc(Br)s1`, the AC50 was 12.6 µM [falling, partial curve].

Turning to `Cc1sc2nc(CSc3nnc(Cc4cccs4)n3C3CCCCC3)[nH]c(=O)c2c1C`, the AC50 was 12.6 µM [rising, single point].

Consider `CC(=O)NCCNc1nc(-c2cccc(C#N)c2)nc2ccccc12`, for which the AC50 was 7.94 µM [rising, partial curve].
